Assay results published in publication PMC10940622.
No constants are given. Whether binding was seen depends on the method and setting. Binding seen in cells or lysates may run through a third protein. Some results given as binding are weak or reduced against the parent protein; the word gives no strength.

Protein sequences, listed by entry. Tags and fused reporters are not part of them. Residues count along the entry.
UniProt Q9NXA8, residues 37-310: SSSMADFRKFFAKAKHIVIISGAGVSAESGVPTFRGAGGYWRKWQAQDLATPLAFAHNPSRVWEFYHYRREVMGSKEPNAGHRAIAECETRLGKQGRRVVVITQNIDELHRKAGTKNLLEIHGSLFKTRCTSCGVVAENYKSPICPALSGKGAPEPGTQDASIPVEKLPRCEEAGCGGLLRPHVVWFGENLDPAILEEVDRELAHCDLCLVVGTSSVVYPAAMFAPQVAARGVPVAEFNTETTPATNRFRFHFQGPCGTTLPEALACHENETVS
UniProt P49773: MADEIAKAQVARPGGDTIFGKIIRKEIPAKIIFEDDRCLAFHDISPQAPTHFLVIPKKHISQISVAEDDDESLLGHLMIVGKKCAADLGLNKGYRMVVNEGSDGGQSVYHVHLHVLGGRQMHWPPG

Molecular target: Flag-SIRT5, ectopically expressed in 293T cells (UniProt Q9NXA8)
Assay: co-IP; 293T cells expressing Flag-SIRT5 and GFP-HINT1, 1% NP-40 lysate; precipitated with anti-Flag beads (Flag Fab-Trap agarose) overnight at 4 °C; immunoblot

- binding: binds
Substance: GFP-HINT1, ectopically expressed in 293T cells (from UniProt P49773 1-126)
